Test results as given in patent publication US11339154B2, “Heterocycle-substituted bicyclic azole pesticides” (FMC Corporation, priority 2016, dated 2022).
Some entries share one result that the patent states for a list of compounds.

Tested on: Western Flower Thrips (Frankliniellla occidentalis (Pergande))
Assay: Test F: control of Western Flower Thrips on Soleil bean plant, contact and/or systemic, spray
Type: in vivo
Details: 250 ppm spray; 6 days; very good to excellent control; criterion is plant damage and/or 100% mortality
Experimental: Formulation and Spray Methodology for Tests A-F
Test compounds were formulated using a solution containing 10% acetone, 90% water and 300 ppm X-77® Spreader Lo-Foam Formula non-ionic surfactant containing alkylarylpolyoxyethylene, free fatty acids, glycols and isopropanol (Loveland Industries, Inc. Greeley, Colo., USA). The formulated compounds were applied in 1 mL of liquid through a SUJ2 atomizer nozzle with 1/8 JJ custom body (Spraying Systems Co. Wheaton, Ill., USA) positioned 1.27 cm (0.5 inches) above the top of each test unit. Test compounds were sprayed at the rates indicated, and each test was replicated three times.
For evaluating control of the Western Flower Thrips (Frankliniellla occidentalis (Pergande)) through contact and/or systemic means, the test unit consisted of a small open container with a 5-7-day-old Soleil bean plant inside.
Test compounds were formulated and sprayed at 250 and/or 50 ppm. After spraying, the test units were allowed to dry for 1 hour, and then 22-27 adult thrips were added to each unit. A black, screened cap was placed on top, and the test units were held for 6 days at 25° C. and 45-55% relative humidity.

## O=C(NCCO)c1cccc(-c2ccc3nn(-c4cccnc4)cc3c2)c1 [Compound 31, N-(2-hydroxyethyl)-3-[2-(3-pyridinyl)-2H-indazol-5-yl]benzamide]
  control efficacy: plant damage (30% or less plant damage and/or 100% mortality): ≤ 30%
